Measurements reported in PubChem BioAssay AID743454 (Peter MacCallum Cancer Centre, 2014).
Screen: 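Search for knock-downs that restore vorinostat killing in resistant colon cancer cells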 (primary screen). Cells: human HCT116-VR colon cancer cells, selected for vorinostat resistance. Reagent: siRNA pool against human genes, 40 nM siRNA pool. Time to read-out: vorinostat for 24 h, read-out about 72 h after transfection. Conditions: vorinostat at 2.5 µM final. Measurement: 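Cell viability by CellTiter-Fluor and caspase 3/7 activity by luminescence, each scaled to mock wells per plate, duplicates averaged, then robust z-scored over all plates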. Direction: viability robust z-score: higher = more viable cells than screen typical; caspase robust z-score: higher = more caspase 3/7 activity than screen typical. Active means: 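a knock-down is a hit when classed RV1 or RV2 for lowered viability, or CA1 or CA2 for caspase activation; those lethal without drug were dropped; hits were retested singly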.
In all, the deposit lists about 18,000 reagents; this is a random part of them. Over the whole deposit, 450 (2.5%) were called active. 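Single biological run; no consistent viability z cut-off exists, so the class columns, not z-scores, define the calls.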

For ACHE (acetylcholinesterase (Yt blood group)), what was measured?
viability hit class: no change; caspase hit class: no change; viability robust z-score: 0.4; caspase robust z-score: -0.82; Call: inactive

With OR1M1 (olfactory receptor family 1 subfamily M member 1), how do the results read?
viability hit class: no change; caspase hit class: no change; viability robust z-score: 0.35; caspase robust z-score: 0.5; Call: inactive

How did the screen score RELA (RELA proto-oncogene, NF-kB subunit)?
viability hit class: no change; caspase hit class: no change; viability robust z-score: 0.3; caspase robust z-score: 2.54; Call: inactive

For TNF (tumor necrosis factor), what does the deposit list?
viability hit class: no change; caspase hit class: no change; viability robust z-score: 1.59; caspase robust z-score: -0.76; Call: inactive

With PGBD4 (piggyBac transposable element derived 4), how do the results read?
viability hit class: no change; caspase hit class: no change; viability robust z-score: 0.27; caspase robust z-score: -0.52; Call: inactive

What did the screen give for GRM4 (glutamate metabotropic receptor 4)?
viability hit class: no change; caspase hit class: no change; viability robust z-score: -1.07; caspase robust z-score: -0.32; Call: inactive

What is on record for MEF2C (myocyte enhancer factor 2C)?
viability hit class: no change; caspase hit class: no change; viability robust z-score: 0.66; caspase robust z-score: 0.02; Call: inactive

What did the screen give for MCEMP1 (mast cell expressed membrane protein 1)?
viability hit class: no change; caspase hit class: no change; viability robust z-score: -2.73; caspase robust z-score: -0.18; Call: inactive

Which result is listed for VCPIP1 (valosin containing protein interacting protein 1)?
viability hit class: no change; caspase hit class: no change; viability robust z-score: -0.42; caspase robust z-score: -0.84; Call: inactive

What is on record for TERT (telomerase reverse transcriptase)?
viability hit class: no change; caspase hit class: no change; viability robust z-score: 0.21; caspase robust z-score: -0.14; Call: inactive

Which result is listed for FCRL2 (Fc receptor like 2)?
viability hit class: no change; caspase hit class: no change; viability robust z-score: -2.36; caspase robust z-score: 1.92; Call: inactive

With OR1L8 (olfactory receptor family 1 subfamily L member 8), how do the results read?
viability hit class: no change; caspase hit class: no change; viability robust z-score: 0.64; caspase robust z-score: -0.32; Call: inactive

For SCG5 (secretogranin V), how do the results read?
viability hit class: no change; caspase hit class: no change; viability robust z-score: 1.22; caspase robust z-score: -0.12; Call: inactive

How did the screen score AMY2A (amylase alpha 2A)?
viability hit class: no change; caspase hit class: no change; viability robust z-score: 0.02; caspase robust z-score: -0.24; Call: inactive

With ZC3H11D (zinc finger CCCH-type containing 11D), what does the deposit list?
viability hit class: no change; caspase hit class: CA1 (caspase activation); viability robust z-score: 0.11; caspase robust z-score: 6.48; Call: active

With POU1F1 (POU class 1 homeobox 1), what was measured?
viability hit class: no change; caspase hit class: no change; viability robust z-score: 0.36; caspase robust z-score: 0.75; Call: inactive

What did the screen give for ICAM1 (intercellular adhesion molecule 1)?
viability hit class: no change; caspase hit class: no change; viability robust z-score: -1.71; caspase robust z-score: 4.52; Call: inactive

How did the screen score BCL7C (BAF chromatin remodeling complex subunit BCL7C)?
viability hit class: no change; caspase hit class: no change; viability robust z-score: 1.08; caspase robust z-score: -0.24; Call: inactive

How did the screen score MMD2 (monocyte to macrophage differentiation associated 2)?
viability hit class: no change; caspase hit class: no change; viability robust z-score: 0.68; caspase robust z-score: -0.95; Call: inactive

Which result is listed for GARIN5A (golgi associated RAB2 interactor 5A)?
viability hit class: no change; caspase hit class: no change; viability robust z-score: -0.78; caspase robust z-score: 1.68; Call: inactive

How did the screen score PRSS57 (serine protease 57)?
viability hit class: no change; caspase hit class: no change; viability robust z-score: 0.76; caspase robust z-score: -0.06; Call: inactive

Laid out differently: 2 of the entries above.
gene,viability hit class,caspase hit class,viability robust z-score,caspase robust z-score,Call
AMY2A (amylase alpha 2A),no change,no change,0.02,-0.24,inactive
ZC3H11D (zinc finger CCCH-type containing 11D),no change,CA1 (caspase activation),0.11,6.48,active
